Source: ChEMBL document CHEMBL4387708, “Enhancement of Benzothiazoles as Pteridine Reductase-1 Inhibitors for the Treatment of Trypanosomatidic Infections” (J Med Chem, 2019)

Protein sequences, listed by entry. Tags and fused reporters are not part of them.
UniProt P33261, whole entry: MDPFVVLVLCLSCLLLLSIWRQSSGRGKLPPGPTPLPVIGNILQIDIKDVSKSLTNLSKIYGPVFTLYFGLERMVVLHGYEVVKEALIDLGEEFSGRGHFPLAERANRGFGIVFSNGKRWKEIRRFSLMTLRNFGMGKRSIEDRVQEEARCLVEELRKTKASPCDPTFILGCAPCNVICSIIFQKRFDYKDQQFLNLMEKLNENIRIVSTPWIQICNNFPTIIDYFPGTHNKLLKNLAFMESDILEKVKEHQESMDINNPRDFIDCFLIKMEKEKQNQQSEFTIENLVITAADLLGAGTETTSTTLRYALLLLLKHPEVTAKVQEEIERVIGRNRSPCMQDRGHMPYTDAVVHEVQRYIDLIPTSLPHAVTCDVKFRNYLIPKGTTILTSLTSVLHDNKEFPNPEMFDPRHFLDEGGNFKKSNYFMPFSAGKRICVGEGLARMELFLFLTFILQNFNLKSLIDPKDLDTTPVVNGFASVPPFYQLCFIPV
UniProt P11712, whole entry: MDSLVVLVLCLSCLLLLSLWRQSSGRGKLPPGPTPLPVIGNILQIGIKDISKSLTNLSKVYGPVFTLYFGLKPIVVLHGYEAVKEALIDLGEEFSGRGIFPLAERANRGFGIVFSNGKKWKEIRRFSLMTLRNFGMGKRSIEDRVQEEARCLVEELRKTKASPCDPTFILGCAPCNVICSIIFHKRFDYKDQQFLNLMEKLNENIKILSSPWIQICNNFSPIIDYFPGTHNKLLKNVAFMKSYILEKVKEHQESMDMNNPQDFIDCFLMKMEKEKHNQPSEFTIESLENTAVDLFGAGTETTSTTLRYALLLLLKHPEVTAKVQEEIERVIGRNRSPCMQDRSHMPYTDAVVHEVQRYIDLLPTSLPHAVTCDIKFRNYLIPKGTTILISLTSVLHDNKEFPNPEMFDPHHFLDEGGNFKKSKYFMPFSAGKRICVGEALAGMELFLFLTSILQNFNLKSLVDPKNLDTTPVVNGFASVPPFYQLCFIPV
UniProt P10635, whole entry: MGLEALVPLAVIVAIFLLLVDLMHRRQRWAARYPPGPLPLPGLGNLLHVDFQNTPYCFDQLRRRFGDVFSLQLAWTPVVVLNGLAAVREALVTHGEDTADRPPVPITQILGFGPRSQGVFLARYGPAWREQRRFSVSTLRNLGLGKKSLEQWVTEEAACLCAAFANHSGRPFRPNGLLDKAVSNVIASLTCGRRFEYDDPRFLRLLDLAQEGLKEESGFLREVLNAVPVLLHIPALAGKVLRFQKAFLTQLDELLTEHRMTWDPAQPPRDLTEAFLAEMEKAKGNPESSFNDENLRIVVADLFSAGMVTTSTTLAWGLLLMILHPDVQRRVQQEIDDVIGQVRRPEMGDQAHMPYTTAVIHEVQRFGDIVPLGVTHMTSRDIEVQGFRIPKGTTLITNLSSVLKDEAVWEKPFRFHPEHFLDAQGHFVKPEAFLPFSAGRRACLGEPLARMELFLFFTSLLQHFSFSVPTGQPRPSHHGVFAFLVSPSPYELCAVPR

Legend:
Cytochrome P450 2C19 = Cytochrome P450 2C19 (Homo sapiens, UniProt P33261); assay: Inhibition of human CYP2C19 expressed in baculovirus infected insect cells using beetle D-luciferin as substrate preincubated for 30 mins followed by NADPH addition and measured after 30 mins by CYP450-Glo assay
Cytochrome P450 2C9 = Cytochrome P450 2C9 (Homo sapiens, UniProt P11712); assay: Inhibition of human CYP2C9 expressed in baculovirus infected insect cells using beetle D-luciferin as substrate preincubated for 30 mins followed by NADPH addition and measured after 30 mins by CYP450-Glo assay
Cytochrome P450 2D6 = Cytochrome P450 2D6 (Homo sapiens, UniProt P10635); assay: Inhibition of human CYP2D6 expressed in baculovirus infected insect cells using beetle D-luciferin as substrate preincubated for 30 mins followed by NADPH addition and measured after 30 mins by CYP450-Glo assay

Measured: IC50

Nc1nc2ccc(OC(F)(F)F)cc2s1 [RILUZOLE]
> 25 µM: all assays above
